Source: article PMC7462905

Molecular target: T1, ligand-binding region (BR) domain of the pneumococcal serine-rich repeat protein PsrP, residues 187-385 (Streptococcus pneumoniae), A0A0H2
T1 chain: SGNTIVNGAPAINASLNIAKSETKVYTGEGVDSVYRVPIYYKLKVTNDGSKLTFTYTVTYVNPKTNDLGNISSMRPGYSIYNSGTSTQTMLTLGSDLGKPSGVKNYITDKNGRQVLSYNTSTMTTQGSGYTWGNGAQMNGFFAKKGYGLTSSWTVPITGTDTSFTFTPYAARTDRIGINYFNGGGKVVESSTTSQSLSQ
Assay: NMR 15N relaxation (T1, T2, NOE; rotational correlation time); protein at least 0.7 mM in 50 mM Na-phosphate pH 5.0, 100 mM NaCl, 1 mM NaN3, 10% D2O, 298 K, 14.1 T; correlation time 13 ns compared with that expected for a 20 kDa protein; both purified
Conditions: remark: other sources report otherwise

B1: ligand-binding region (BR) domain of the pneumococcal serine-rich repeat protein PsrP, residues 187-385, A0A0H2URK1 187-385 (domain or fragment)
chain: SGNTIVNGAPAINASLNIAKSETKVYTGEGVDSVYRVPIYYKLKVTNDGSKLTFTYTVTYVNPKTNDLGNISSMRPGYSIYNSGTSTQTMLTLGSDLGKPSGVKNYITDKNGRQVLSYNTSTMTTQGSGYTWGNGAQMNGFFAKKGYGLTSSWTVPITGTDTSFTFTPYAARTDRIGINYFNGGGKVVESSTTSQSLSQ
Question: For B1, which binding is on record?
Answer: no binding (tested: at least 0.7 mM)

No constants are given. Whether binding was seen depends on the method and setting.
